One experiment has as its target T1, YTHDF3 (UniProt Q7Z739).
T1 sequence: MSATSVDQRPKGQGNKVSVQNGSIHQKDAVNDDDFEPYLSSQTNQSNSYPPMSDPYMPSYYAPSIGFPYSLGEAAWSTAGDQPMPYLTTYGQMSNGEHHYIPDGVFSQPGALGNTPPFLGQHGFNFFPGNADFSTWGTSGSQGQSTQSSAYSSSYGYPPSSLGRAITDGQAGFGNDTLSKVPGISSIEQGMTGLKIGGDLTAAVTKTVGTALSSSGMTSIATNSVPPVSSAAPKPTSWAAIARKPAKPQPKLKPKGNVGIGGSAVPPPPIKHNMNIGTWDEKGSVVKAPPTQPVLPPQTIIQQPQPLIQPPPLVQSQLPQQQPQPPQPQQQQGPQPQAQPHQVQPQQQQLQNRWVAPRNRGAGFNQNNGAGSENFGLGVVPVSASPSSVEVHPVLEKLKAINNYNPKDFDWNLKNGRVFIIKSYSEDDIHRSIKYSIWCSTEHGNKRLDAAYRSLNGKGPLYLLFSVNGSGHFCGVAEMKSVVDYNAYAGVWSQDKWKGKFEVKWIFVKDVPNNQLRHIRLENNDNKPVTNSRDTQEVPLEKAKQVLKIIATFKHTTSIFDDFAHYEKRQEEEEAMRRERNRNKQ
The experiment can be described thus: co-IP; eIF4G2 and YTHDF3 with different epitope tags co-expressed in 293 cells; precipitation with anti-Flag or anti-HA antibodies (reciprocal).

In another experiment the target is T2, eIF4G2 (UniProt P78344).
T2 sequence: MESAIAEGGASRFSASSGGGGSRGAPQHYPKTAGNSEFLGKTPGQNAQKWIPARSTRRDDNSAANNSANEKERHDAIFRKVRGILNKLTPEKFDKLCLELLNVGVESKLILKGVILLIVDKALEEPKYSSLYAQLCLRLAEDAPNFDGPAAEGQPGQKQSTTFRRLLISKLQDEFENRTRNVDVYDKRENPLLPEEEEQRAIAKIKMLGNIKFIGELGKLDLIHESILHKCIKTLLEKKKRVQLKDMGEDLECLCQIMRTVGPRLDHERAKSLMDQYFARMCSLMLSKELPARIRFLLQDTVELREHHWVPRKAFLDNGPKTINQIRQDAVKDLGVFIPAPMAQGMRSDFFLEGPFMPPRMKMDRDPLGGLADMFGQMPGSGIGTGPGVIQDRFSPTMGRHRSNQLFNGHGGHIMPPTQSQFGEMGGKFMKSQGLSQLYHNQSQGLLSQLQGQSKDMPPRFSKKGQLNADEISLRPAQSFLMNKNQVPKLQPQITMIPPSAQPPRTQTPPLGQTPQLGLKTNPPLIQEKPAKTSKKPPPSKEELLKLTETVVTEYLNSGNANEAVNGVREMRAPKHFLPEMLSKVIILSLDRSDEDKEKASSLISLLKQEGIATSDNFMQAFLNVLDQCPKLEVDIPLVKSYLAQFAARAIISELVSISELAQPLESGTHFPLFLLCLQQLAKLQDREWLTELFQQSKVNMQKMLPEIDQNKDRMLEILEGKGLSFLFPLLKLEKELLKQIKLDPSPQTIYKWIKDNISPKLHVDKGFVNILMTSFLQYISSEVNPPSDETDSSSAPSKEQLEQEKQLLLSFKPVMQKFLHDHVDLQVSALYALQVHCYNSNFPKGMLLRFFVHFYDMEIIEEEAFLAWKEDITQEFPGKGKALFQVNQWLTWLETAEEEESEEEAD
The experiment is described as above.

Results are given in words; binding and its absence hold for the method and conditions named. Binding seen in cells or lysates may run through a third protein. Some entries that bind do so weakly or less than the wild type.

B1: eIF4G2 (protein, UniProt P78344 1-907)
chain: T2 sequence
As for B1, the binding result with YTHDF3 is listed as “binds”.

B2: YTHDF3 (protein, UniProt Q7Z739 1-585)
chain: T1 sequence
For B2, the binding result with eIF4G2 is “binds”.

(Values after article PMC5520850.)
